Assay results from the M2OR odorant receptor database.
The entries are a selection whose mix differs from that of the whole data set. Calls are pooled over several reports, among them a noisy single-well screen. Some of the results follow.

Legend:
Conditions in all cases: stereoisomer not certain
[1] = tested on: T1, OR1L1
T1 sequence (whole entry): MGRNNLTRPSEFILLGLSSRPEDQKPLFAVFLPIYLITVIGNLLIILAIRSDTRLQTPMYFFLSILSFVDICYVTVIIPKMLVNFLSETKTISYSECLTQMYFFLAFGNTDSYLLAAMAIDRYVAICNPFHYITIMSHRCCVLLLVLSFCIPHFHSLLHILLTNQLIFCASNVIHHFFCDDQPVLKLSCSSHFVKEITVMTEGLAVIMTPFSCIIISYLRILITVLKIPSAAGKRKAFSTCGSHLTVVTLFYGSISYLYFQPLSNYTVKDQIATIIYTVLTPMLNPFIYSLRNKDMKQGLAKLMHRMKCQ
Procedure, shortened: (§1)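 Each entry records the cell line, G-protein, co-transfected protein and tags used. Methods varied with the source, often transient luciferase assays in mammalian cell lines. A receptor–molecule pair is called responsive (active) if the original authors judged its signal statistically different from baseline and non-responsive (inactive) otherwise.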

[2] = target: T2, OR1L3 (Homo sapiens) (UniProt Q8NH93)
T2 sequence (whole entry): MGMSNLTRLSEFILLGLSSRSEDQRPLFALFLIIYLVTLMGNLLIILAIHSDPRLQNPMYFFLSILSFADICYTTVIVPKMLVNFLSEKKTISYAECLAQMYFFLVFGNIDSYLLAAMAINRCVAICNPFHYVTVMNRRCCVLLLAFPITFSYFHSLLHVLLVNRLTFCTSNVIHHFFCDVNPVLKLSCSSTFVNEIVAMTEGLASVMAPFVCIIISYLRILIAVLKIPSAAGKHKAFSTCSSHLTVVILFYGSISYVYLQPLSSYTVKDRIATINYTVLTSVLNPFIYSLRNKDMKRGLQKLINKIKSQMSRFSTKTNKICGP
Procedure, shortened: as §1

[3] = tested on: T3, OR1L4
T3 sequence (whole entry): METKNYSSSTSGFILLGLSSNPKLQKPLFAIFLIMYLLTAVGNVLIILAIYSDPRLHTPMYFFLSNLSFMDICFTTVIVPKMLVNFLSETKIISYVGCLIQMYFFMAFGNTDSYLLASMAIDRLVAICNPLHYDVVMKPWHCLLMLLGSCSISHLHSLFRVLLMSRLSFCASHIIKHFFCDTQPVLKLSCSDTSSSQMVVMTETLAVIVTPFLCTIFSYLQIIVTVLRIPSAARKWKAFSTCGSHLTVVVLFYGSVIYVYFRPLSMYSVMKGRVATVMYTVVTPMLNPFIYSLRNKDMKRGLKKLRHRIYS
Procedure, shortened: as §1

[4] = tested on: T4, OR1L6
T4 sequence (whole entry): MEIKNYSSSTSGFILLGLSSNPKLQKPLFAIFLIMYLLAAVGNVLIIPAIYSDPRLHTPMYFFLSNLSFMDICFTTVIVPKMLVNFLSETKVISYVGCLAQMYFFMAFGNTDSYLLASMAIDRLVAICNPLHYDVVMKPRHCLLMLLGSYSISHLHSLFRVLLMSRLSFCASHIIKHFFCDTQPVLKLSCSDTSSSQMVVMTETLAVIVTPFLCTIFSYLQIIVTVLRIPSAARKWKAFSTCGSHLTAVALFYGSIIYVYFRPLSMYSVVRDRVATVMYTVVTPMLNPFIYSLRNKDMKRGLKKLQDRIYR
Procedure, shortened: as §1

[5] = target: T5, OR1L8 (Homo sapiens) (UniProt Q8NGR8)
T5 sequence (whole entry): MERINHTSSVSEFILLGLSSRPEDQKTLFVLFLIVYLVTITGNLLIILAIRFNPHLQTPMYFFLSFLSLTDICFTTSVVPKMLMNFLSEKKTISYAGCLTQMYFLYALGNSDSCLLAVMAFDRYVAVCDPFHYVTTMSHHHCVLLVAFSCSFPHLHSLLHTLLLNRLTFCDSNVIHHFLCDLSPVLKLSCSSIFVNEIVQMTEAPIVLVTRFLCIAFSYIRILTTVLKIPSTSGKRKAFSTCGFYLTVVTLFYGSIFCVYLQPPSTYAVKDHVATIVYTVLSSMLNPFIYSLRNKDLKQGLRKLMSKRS
Procedure, shortened: as §1

[6] = tested on: T6, OR1M1
T6 sequence (whole entry): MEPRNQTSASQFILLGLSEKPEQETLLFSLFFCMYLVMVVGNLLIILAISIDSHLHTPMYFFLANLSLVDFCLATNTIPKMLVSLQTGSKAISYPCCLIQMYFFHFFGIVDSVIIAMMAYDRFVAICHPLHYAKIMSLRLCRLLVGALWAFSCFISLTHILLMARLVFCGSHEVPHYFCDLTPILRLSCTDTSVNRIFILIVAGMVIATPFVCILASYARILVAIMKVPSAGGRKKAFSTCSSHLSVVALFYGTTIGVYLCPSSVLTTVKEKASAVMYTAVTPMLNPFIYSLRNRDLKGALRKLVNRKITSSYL
Procedure, shortened: as §1

[7] = target: T7, OR1N1 (Homo sapiens) (UniProt Q8NGS0)
T7 sequence (whole entry): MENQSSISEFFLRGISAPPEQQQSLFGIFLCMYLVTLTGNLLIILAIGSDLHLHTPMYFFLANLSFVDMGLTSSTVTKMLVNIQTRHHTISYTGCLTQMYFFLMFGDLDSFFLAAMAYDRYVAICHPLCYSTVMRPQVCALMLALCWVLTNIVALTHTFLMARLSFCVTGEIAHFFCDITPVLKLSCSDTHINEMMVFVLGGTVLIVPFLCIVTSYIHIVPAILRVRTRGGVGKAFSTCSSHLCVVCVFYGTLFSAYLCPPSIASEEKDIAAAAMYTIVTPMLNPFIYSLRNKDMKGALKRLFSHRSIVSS
Procedure, shortened: as §1

[8] = target: T8, OR1N2 (Homo sapiens) (UniProt Q8NGR9)
T8 sequence (whole entry): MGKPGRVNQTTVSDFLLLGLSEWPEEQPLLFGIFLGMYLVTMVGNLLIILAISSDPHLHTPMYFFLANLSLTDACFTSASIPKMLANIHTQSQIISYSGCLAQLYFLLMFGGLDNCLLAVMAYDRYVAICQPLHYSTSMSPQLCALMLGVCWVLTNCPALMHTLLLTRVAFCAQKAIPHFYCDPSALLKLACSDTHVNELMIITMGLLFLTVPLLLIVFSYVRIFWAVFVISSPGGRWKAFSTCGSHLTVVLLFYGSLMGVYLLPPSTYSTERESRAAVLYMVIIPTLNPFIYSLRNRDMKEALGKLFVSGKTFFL
Procedure, shortened: as §1

[9] = tested on: T9, OR1N2
T9 sequence (whole entry): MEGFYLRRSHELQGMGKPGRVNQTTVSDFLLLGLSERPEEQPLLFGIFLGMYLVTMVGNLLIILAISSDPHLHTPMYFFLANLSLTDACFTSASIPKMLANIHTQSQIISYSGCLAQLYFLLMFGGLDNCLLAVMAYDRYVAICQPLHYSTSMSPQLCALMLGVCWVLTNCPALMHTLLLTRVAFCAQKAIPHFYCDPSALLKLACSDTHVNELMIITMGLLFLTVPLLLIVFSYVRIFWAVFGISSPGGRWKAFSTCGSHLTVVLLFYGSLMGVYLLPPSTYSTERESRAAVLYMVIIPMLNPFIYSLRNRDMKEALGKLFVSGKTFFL
Procedure, shortened: as §1

[10] = tested on: T10, OR1Q1
T10 sequence (whole entry): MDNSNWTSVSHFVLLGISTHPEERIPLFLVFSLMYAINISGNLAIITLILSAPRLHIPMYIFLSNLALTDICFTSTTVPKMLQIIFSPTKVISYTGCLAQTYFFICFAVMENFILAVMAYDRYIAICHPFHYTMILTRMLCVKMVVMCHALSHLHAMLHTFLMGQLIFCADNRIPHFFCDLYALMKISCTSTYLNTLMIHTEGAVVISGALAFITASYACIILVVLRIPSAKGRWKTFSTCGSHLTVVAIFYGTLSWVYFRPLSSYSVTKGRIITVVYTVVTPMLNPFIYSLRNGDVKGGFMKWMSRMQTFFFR
Procedure, shortened: as §1

[11] = tested on: T11, OR1S1
T11 sequence (whole entry): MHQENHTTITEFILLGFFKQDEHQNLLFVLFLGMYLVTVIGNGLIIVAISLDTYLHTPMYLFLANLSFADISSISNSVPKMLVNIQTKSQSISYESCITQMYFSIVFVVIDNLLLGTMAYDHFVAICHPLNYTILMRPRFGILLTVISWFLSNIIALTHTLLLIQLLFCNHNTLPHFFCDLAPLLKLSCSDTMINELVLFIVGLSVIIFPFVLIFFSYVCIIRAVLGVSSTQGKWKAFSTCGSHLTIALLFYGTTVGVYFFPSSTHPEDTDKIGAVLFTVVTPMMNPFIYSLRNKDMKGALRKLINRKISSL
Procedure, shortened: as §1

[12] = tested on: T12, OR1S2
T12 sequence (whole entry): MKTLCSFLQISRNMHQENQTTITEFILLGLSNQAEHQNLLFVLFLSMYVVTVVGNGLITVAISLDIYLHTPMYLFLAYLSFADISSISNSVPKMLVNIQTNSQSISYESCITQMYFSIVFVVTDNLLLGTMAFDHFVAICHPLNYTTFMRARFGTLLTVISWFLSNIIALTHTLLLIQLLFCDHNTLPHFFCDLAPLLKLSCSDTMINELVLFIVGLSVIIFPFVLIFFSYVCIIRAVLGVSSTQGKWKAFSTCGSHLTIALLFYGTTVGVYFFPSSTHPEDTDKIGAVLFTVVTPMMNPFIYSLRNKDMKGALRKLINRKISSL
Procedure, shortened: as §1

[13] = target: T13, OR2A1 (Homo sapiens) (UniProt Q8NGT9)
T13 sequence (whole entry): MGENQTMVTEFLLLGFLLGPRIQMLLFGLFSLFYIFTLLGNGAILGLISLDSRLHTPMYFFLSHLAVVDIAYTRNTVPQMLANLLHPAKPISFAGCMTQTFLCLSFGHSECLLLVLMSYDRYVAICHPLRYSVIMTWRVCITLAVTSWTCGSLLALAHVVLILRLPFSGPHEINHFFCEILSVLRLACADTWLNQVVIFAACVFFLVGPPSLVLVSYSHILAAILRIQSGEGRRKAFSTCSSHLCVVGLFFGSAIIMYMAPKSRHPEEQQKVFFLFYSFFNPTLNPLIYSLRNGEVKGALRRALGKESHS
Procedure, shortened: as §1

[14] = target: T14, OR2A12 (Homo sapiens) (UniProt Q8NGT7)
T14 sequence (whole entry): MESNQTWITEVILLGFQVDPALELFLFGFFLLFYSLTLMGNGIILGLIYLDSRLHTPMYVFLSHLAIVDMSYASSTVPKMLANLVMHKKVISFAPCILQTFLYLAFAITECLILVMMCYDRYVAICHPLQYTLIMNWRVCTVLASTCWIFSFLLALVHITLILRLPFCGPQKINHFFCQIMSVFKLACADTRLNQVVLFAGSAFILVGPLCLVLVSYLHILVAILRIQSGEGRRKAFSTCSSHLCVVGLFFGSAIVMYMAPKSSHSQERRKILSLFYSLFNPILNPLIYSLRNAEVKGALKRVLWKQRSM
Procedure, shortened: as §1

Measured: odorant receptor agonist call

CCCCCCCCCCC=O
inactive: [1] | [2] | [3] | [4] | [5] | [6] | [7] | [8] | [9] | [10] | [11] | [12] | [13] | [14]

CC(C)=CCCC(C)=CC=O
inactive: [1] | [2] | [3] | [4] | [5] | [6] | [7] | [8] | [9] | [10] | [11] | [12] | [14]

CCCCCCCC=O
inactive: [1] | [2] | [3] | [4] | [5] | [6] | [7] | [8] | [9] | [10] | [11] | [12] | [13] | [14]

CCCCCCCC=CC=O
inactive: [1] | [2] | [3] | [4] | [5] | [6] | [7] | [9] | [10] | [11] | [12] | [14]
active: [8]

CCCCCCOC(=O)CCC
active: [6]
inactive: [1] | [2] | [3] | [4] | [5] | [7] | [8] | [9] | [10] | [11] | [12] | [14]

Nothing new here: 2 of the compounds above.
CC(C)=CCCC(C)=CC=O
inactive: [1] | [2] | [3] | [4] | [5] | [6] | [7] | [8] | [9] | [10] | [11] | [12] | [14]

CCCCCCCC=O
inactive: [1] | [2] | [3] | [4] | [5] | [6] | [7] | [8] | [9] | [10] | [11] | [12] | [13] | [14]

Next entries

CC(C)C=O
inactive: [1] | [2] | [3] | [4] | [5] | [6] | [7] | [8] | [9] | [10] | [11] | [12] | [14]
